# The supplement of paper PMC3682954
# Structures can show the parent of a compound that is named as a salt. ± gives the standard deviation of the averaged measurements. The list shows a part of the results. Repeats are few or missing, and single values can be far off.
# System: RAW 264.7
# Experiment: cell viability (MTT) relative to vehicle control; higher = more viable cells
# Conditions: stimulus: HMGB1 5 ug/ml, 18 h
# [1] = compound concentration: 1 ug/ml
Compound,cell viability (compound concentration: 3 uM),cell viability [1]
CC(N)C12CC3CC(CC(C3)C1)C2 (stereo not drawn),105%,–
CC(N)C12CC3CC(CC(C3)C1)C2 (stereo not drawn) [Rimantadine],99.3 ± 12%,–
c1ccc2c(c1)CCCc1cc(NCCN3CCOCC3)nnc1-2,123%,–
Nc1cc(-c2ccncc2)c[nH]c1=O [Amrinone],103%,–
C[C@H]1C[C@@H]2[C@H]([C@@H](O)C[C@@]3(C)[C@H]2CC[C@]3(O)C(=O)COC(=O)CCC(=O)O)[C@@]2(C)C=CC(=O)C=C12,115%,–
O=C(O)/C(=C\c1c(C(=O)O)[nH]c2cc(Cl)cc(Cl)c12)c1ccccc1,118%,–
CN(C)[C@@H]1C(O)=C(C(N)=O)C(=O)[C@@]2(O)C(O)=C3C(=O)c4c(O)ccc(Cl)c4[C@@H](O)[C@H]3C[C@@H]12 [Demeclocycline hydrochloride],114 ± 21%,–
CN(C)[C@@H]1C(O)=C(C(N)=O)C(=O)[C@@]2(O)C(O)=C3C(=O)c4c(O)ccc(Cl)c4[C@@H](O)[C@H]3C[C@@H]12,99.6%,–
NC(N)=O,101%,–
COC(=O)c1ccc(O)c2nc3c(C=O)c(O)cc(O)c3nc12 [Lomofungin],111%,–
Cn1c([N+](=O)[O-])cnc1COC(N)=O,103%,–
Cn1c([N+](=O)[O-])cnc1COC(N)=O [Ronidazole],101%,–
O=C1c2ccccc2S(=O)(=O)N1CCCCN1CCN(c2ncccn2)CC1 [Ipsapirone],112%,–
N[C@@H](C(=O)N[C@@H]1C(=O)N2C(C(=O)O)=C(Cl)CS[C@H]12)c1ccccc1 [Cefaclor],102 ± 7%,92.9%
N[C@@H](C(=O)N[C@@H]1C(=O)N2C(C(=O)O)=C(Cl)CS[C@H]12)c1ccccc1,102 ± 1.6%,–
COc1ccc(C(=O)NCc2ccc(OCCN(C)C)cc2)cc1OC [Itopride],124 ± 26%,–
COc1ccc(C(=O)NCc2ccc(OCCN(C)C)cc2)cc1OC,101%,–
COc1cccc2oc(-c3ccc(O)cc3)cc(=O)c12,–,82.6%
C[C@@H]1C[C@@]2(O[C@H]2C)C(=O)O[C@@H]2CCN(C)C/C=C(/COC(=O)[C@]1(C)O)C2=O [Otosenine],–,96.3%

Compound,cell viability (compound concentration: 3 uM),cell viability [1]
NCCS(=O)O [Hypotaurine],106%,–
OC[C@H]1O[C@@H](O[C@@H]2[C@@H](CO)OC(O)(CO)[C@H]2O)[C@H](O)[C@@H](O)[C@H]1O (mixture of isomers) [Lactulose],–,106%
OC[C@H]1O[C@@H](O[C@@H]2[C@@H](CO)OC(O)(CO)[C@H]2O)[C@H](O)[C@@H](O)[C@H]1O (mixture of isomers),105%,–
CC(Oc1ccccc1)C(=O)N[C@@H]1C(=O)N2[C@@H]1SC(C)(C)[C@@H]2C(=O)O (stereo partly drawn),106%,–
CC(Oc1ccccc1)C(=O)N[C@@H]1C(=O)N2[C@@H]1SC(C)(C)[C@@H]2C(=O)O (stereo partly drawn) [Phenethicillin potassium salt],126%,–
CC(C)NC[C@H](O)c1ccc(O)c(O)c1 [R(-)-Isoproterenol (+)-bitartrate],101%,–
COc1ccc(-c2cc(C(F)F)nn2-c2ccc(S(N)(=O)=O)cc2)cc1F,102%,–
CC(=O)Nc1ccc(CC(=O)O)cc1,92.2%,–
"O=c1oc2ccccc2c(-c2ccccc2)c1-c1ccc(Cl)cc1Cl [3(2',4'-Dichlorophenyl)-4-phenylcoumarin]",–,99.8%
CNCCC(Oc1ccc(C(F)(F)F)cc1)c1ccccc1 (stereo not drawn) [Fluoxetine],96.8%,–
CNCCC(Oc1ccc(C(F)(F)F)cc1)c1ccccc1 (stereo not drawn) [Fluoxetine hydrochloride],97.9 ± 12%,–
CNCCC(Oc1ccc(C(F)(F)F)cc1)c1ccccc1 (stereo not drawn),104%,–
Cc1nc2n(c(=O)c1CCN1CCC(c3noc4cc(F)ccc34)CC1)CCCC2 [Risperidone],99.4 ± 8.9%,–
Cc1nc2n(c(=O)c1CCN1CCC(c3noc4cc(F)ccc34)CC1)CCCC2,89.5%,–
N=C(N)NCCC[C@H](N)C(=O)O [L-Arginine],103%,–
C#CCN1C(C)=C(C(=O)OC)C(c2cccc([N+](=O)[O-])c2)C(C(=O)OCC)=C1C (stereo not drawn),101%,–
OCc1cc(C(O)CNCCCCCCOCCCCc2ccccc2)ccc1O (stereo not drawn) [Salmeterol],104 ± 5.6%,–
OCc1cc(C(O)CNCCCCCCOCCCCc2ccccc2)ccc1O (stereo not drawn) [Salmeterol xinafoate],112%,–
O=C(O)Cc1sc(-c2ccccc2)nc1-c1ccc(Cl)cc1 [Fentiazac],118 ± 23%,–

# Full records from above:
# Cc1nc2n(c(=O)c1CCN1CCC(c3noc4cc(F)ccc34)CC1)CCCC2 [Risperidone] is listed with cell viability (compound concentration: 3 uM): 99.4 ± 8.9%
# NCCS(=O)O [Hypotaurine] is listed with cell viability (compound concentration: 3 uM): 106%

# Going on with the list.

Compound,cell viability (compound concentration: 3 uM),cell viability [1]
COc1ccc(-c2cc(=O)c3ccc(O)cc3o2)cc1,–,103%
N[C@@H](C(=O)N[C@@H]1C(=O)N2C(C(=O)O)=C(CSc3cn[nH]n3)CS[C@H]12)c1ccc(O)cc1,96.1%,–
CCN1CC(CCN2CCOCC2)C(c2ccccc2)(c2ccccc2)C1=O (stereo not drawn),96.9%,–
Nc1ncnc2c1ncn2[C@@H]1O[C@H](COP(=O)(O)OP(=O)(O)OP(=O)(O)O)[C@@H](O)[C@H]1O,–,104%
COc1cc2cc3c4c(cc(OC)c(OC)c4c2cc1OC)CCN3C [Dehydroglaucine],–,98.2%
CCOC(=O)OC(C)OC1=C(C(=O)Nc2ccccn2)N(C)S(=O)(=O)c2ccccc21 (stereo not drawn),99.9%,–
CCOC(=O)OC(C)OC1=C(C(=O)Nc2ccccn2)N(C)S(=O)(=O)c2ccccc21 (stereo not drawn) [Ampiroxicam],95.2%,–
CC(=O)[C@H]1CC[C@H]2[C@@H]3C[C@H](C)C4=CC(=O)CC[C@]4(C)[C@H]3[C@@H](O)C[C@]12C,120%,–
CC(=O)[C@H]1CC[C@H]2[C@@H]3C[C@H](C)C4=CC(=O)CC[C@]4(C)[C@H]3[C@@H](O)C[C@]12C [Medrysone],133%,–
COc1ccc(-c2oc3ccccc3c(=O)c2O)cc1OC,–,97.4%
O=C(O)c1cc(-c2ccc(F)cc2F)ccc1O,95.5%,–
O=C(O)c1cc(-c2ccc(F)cc2F)ccc1O [Diflunisal],90.9 ± 5.6%,–
CCCCNC(=O)NS(=O)(=O)c1ccc(C)cc1 [Tolbutamide],104 ± 13%,–
CCCCNC(=O)NS(=O)(=O)c1ccc(C)cc1,112%,–
CC(C)(C)NC[C@H](O)c1ccc(O)c(CO)c1,108%,–
CC(C)Nc1ncccn1,112%,–
Cc1cc2c(cc1Cl)N(C(=O)Nc1cccc3ncccc13)CC2,116%,–
CCn1cc(C(=O)O)c(=O)c2cnc(N3CCCC3)nc21 [Piromidic acid],102%,–
CCn1cc(C(=O)O)c(=O)c2cnc(N3CCCC3)nc21,107%,–
